The source of these data is US20140256918A1 (published 2014).

Sequences of proteins named here, by UniProt entry; tags and fusion partners are left off. A change or cut given only in a name is not applied to a line headed by its entry. A line that says so, or that is headed by a name, gives the form on record, which may keep a tag or linker.
C-terminal 6×His-tagged hCXCR5 whole receptor protein (P32302, form named): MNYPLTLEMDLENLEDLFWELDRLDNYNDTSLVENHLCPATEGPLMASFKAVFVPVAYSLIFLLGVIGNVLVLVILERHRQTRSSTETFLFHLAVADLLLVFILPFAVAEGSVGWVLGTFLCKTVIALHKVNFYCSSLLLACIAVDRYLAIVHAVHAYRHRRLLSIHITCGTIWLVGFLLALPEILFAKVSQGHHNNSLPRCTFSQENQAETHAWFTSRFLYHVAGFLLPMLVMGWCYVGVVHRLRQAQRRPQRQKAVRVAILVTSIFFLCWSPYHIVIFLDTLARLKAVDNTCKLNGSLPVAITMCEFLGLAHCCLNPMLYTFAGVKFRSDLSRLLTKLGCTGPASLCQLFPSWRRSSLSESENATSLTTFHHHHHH

The experiment concerns the target C-terminal 6×His-tagged hCXCR5 whole receptor protein (human) (UniProt P32302). Put plainly: SPR (Biacore), whole receptor captured and crosslinked on NTA chip. For orientation: Surface plasmon resonance follows binding to a sensor surface in real time, without labels.

Results are given in words; binding and its absence hold for the method and conditions named. Some entries that bind do so weakly or less than the wild type.

B1: CXCL13 (ligand, UniProt O43927 23-109, looked up)
chain: VLEVYYTSLRCRCVQESSVFIPRRFIDRIQILPRGNGCPRKEIIVWKKNKSIVCVDPQAEWIQRMMEVLRKRSSSTLPVPVFKRKIP
notes: also called hCXCR5 ligand
On to B1, for which the binding entry is recorded as “binds”.
